Results are given in words; binding and its absence hold for the method and conditions named. Binding seen in cells or lysates may run through a third protein. A yes stands for co-enrichment or nearness to the bait. Other partners may have been found.
Target: TurboID-HA-Urm1 fusion (Toxoplasma gondii)
Assay: proximity labelling; TurboID-HA-Urm1 tachyzoites in Vero cells, 150 uM biotin 24 h at 37 C, with or without Dia; RIPA lysate; streptavidin magnetic beads; mass spectrometry

B1: RON4 (protein, UniProt B6KJ32 27-984)
chain: SPPTPAPRMYPNMNERPLSAESRLTPGTYRSELHIDLKSPQKTASQSSLAPTGDNNSKVESIIAGSDTTPRSAEGTSESPPVPQLGTPPRPAPRRSKGEGERQPPTAAPRTSRSVDTGSGSDASTEQQAGGQKVVTPIPASKGIYPSLDELRRSQESNVDAGSGTSTNEGGGTSEGPQVPQSGIPPRTGRRRAKARNRKRHPTPASRESSSEDENQPPTTASRPSNGEGESQPPTAAPRTSRSVDTGSGSDASTEQQAGGQKVVTPIPASKGIYPNLDELRQTQEGEESAPQPADVTWFSMSVPMGVVDRRVSRALKEQFFQFLQHLSADYPKQVQTVYEFLGWVADKLPENEEEVQMFIDALNTTEAMVGKAARWIFKAIPERERETIYSSFYQMFRDKLPKKFFETAEGMNPDVGQYFSAEEPVAVTPEIPAKSEEDSEAAETPTPLRRQANVAAQVLHPLPAKGVTRREWIPWPKMQNAISKAHGPLTRVPEWTPVTGSCALGDGYTDIDVTKATTDVLFRITLLILQQIRRKKTERGKLEDDQALVALCSAAGAFVDAWQHQQQALILEDPGTPKAHAQLIERLRNAGKYFMKSYDETTGESDHQQWKKNKAEVSKLGKSALMKSCVKYIKASGDVATRPFDSGTAKYPSRSLYGGIANTLETPFADSEAVAKAVHDYAKEHKKPEKLVGLCGALQISGYFKKCFSDAGRLSSVSFFHQHVDGASVLVRTLARERPIGRHALSQAICDPNISAQYFEGAFRLFSSTVSQEWEKENLFAQLASWTGKEMVLAPSLEEQAAVPPAQPAYETVYGDEEDRIYRIHVSGRHSSPQEVLYVGGIPSTVKPQQVHVLGPTVSDESRRMIHPVRHRSRTAPSSEAASTAAESSDEDPLPAENATAFLGVTPQEEESDAYKHTLDFDAVSPRKNKNKENRISAPLKQSDTLIEESTSKTSEL
- binding: binds

Reference: PMC9045335
